# Experimental data from the supplement of paper PMC8728848.
# The list shows a part of the results.
# How the values were obtained:
# Test in all cases: glycan array binding signal (z-score within array); higher = stronger binding
# Conditions in all cases: glycan notation: IUPAC condensed, linker removed
# [1] = molecular target: GlcNAc(b1-3)Gal(b1-4)GlcNAc(b1-3)Gal(b1-4)GlcNAc(b1-2)Man(a1-3)[GlcNAc(b1-3)Gal(b1-4)GlcNAc(b1-3)Gal(b1-4)GlcNAc(b1-2)Man(a1-6)]Man(b1-4)GlcNAc(b1-4)[Fuc(a1-6)]GlcNAc
# Procedure, shortened: (§1)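 Arrays were curated from the Consortium for Functional Glycomics database, 3228 in total, and kept only where the protein sequence was available. Binding is expressed as a within-array Z-score. This score was averaged across arrays of the same protein sequence at different concentrations or buffers and across linkers, and negative values can be read as non-binding.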
# [2] = molecular target: GlcNAc(b1-3)Gal(b1-4)GlcNAc(b1-3)Gal(b1-4)GlcNAc(b1-2)[GlcNAc(b1-3)Gal(b1-4)GlcNAc(b1-3)Gal(b1-4)GlcNAc(b1-6)]Man(a1-6)[GlcNAc(b1-3)Gal(b1-4)GlcNAc(b1-3)Gal(b1-4)GlcNAc(b1-2)Man(a1-3)]Man(b1-4)GlcNAc(b1-4)[Fuc(a1-6)]GlcNAc
# Procedure, shortened: as §1
# [3] = molecular target: GlcNAc(b1-3)Gal(b1-4)GlcNAc(b1-3)Gal(b1-4)GlcNAc(b1-3)Gal(b1-4)GlcNAc(b1-2)Man(a1-3)[GlcNAc(b1-3)Gal(b1-4)GlcNAc(b1-3)Gal(b1-4)GlcNAc(b1-3)Gal(b1-4)GlcNAc(b1-2)Man(a1-6)]Man(b1-4)GlcNAc(b1-4)GlcNAc
# Procedure, shortened: as §1
# [4] = molecular target: GlcNAc(b1-3)Gal(b1-4)GlcNAc(b1-3)Gal(b1-4)GlcNAc(b1-3)Gal(b1-4)GlcNAc(b1-2)Man(a1-3)[GlcNAc(b1-3)Gal(b1-4)GlcNAc(b1-3)Gal(b1-4)GlcNAc(b1-3)Gal(b1-4)GlcNAc(b1-2)Man(a1-6)]Man(b1-4)GlcNAc(b1-4)[Fuc(a1-6)]GlcNAc
# Procedure, shortened: as §1
# [5] = molecular target: GlcNAc(b1-3)Gal(b1-4)GlcNAc(b1-3)Gal(b1-4)GlcNAc(b1-3)Gal(b1-4)GlcNAc(b1-2)[GlcNAc(b1-3)Gal(b1-4)GlcNAc(b1-3)Gal(b1-4)GlcNAc(b1-3)Gal(b1-4)GlcNAc(b1-6)]Man(a1-6)[GlcNAc(b1-3)Gal(b1-4)GlcNAc(b1-3)Gal(b1-4)GlcNAc(b1-3)Gal(b1-4)GlcNAc(b1-2)Man(a1-3)]Man(b1-4)GlcNAc(b1-4)[Fuc(a1-6)]GlcNAc
# Procedure, shortened: as §1
# [6] = molecular target: GlcNAc(b1-3)Gal(b1-4)GlcNAc(b1-3)Gal(b1-4)GlcNAc(b1-3)Gal(b1-4)GlcNAc(b1-3)Gal(b1-4)GlcNAc(b1-2)Man(a1-3)[GlcNAc(b1-3)Gal(b1-4)GlcNAc(b1-3)Gal(b1-4)GlcNAc(b1-3)Gal(b1-4)GlcNAc(b1-3)Gal(b1-4)GlcNAc(b1-2)Man(a1-6)]Man(b1-4)GlcNAc(b1-4)GlcNAc
# Procedure, shortened: as §1
# [7] = molecular target: GlcNAc(b1-3)Gal(b1-4)GlcNAc(b1-3)Gal(b1-4)GlcNAc(b1-3)Gal(b1-4)GlcNAc(b1-3)Gal(b1-4)GlcNAc(b1-2)Man(a1-3)[GlcNAc(b1-3)Gal(b1-4)GlcNAc(b1-3)Gal(b1-4)GlcNAc(b1-3)Gal(b1-4)GlcNAc(b1-3)Gal(b1-4)GlcNAc(b1-2)Man(a1-6)]Man(b1-4)GlcNAc(b1-4)[Fuc(a1-6)]GlcNAc
# Procedure, shortened: as §1
# [8] = molecular target: GlcNAc(b1-3)Gal(b1-4)GlcNAc(b1-3)Gal(b1-4)GlcNAc(b1-3)Gal(b1-4)GlcNAc(b1-3)Gal(b1-4)GlcNAc(b1-2)[GlcNAc(b1-3)Gal(b1-4)GlcNAc(b1-3)Gal(b1-4)GlcNAc(b1-3)Gal(b1-4)GlcNAc(b1-3)Gal(b1-4)GlcNAc(b1-6)]Man(a1-6)[GlcNAc(b1-3)Gal(b1-4)GlcNAc(b1-3)Gal(b1-4)GlcNAc(b1-3)Gal(b1-4)GlcNAc(b1-3)Gal(b1-4)GlcNAc(b1-2)Man(a1-3)]Man(b1-4)GlcNAc(b1-4)[Fuc(a1-6)]GlcNAc
# Procedure, shortened: as §1
# [9] = molecular target: GlcNAc(b1-3)Gal(b1-4)GlcNAc(b1-3)Gal(b1-4)GlcNAc(b1-3)GalNAc
# Procedure, shortened: as §1
# [10] = molecular target: GlcNAc(b1-3)Gal(b1-4)GlcNAc(b1-3)GalNAc
# Procedure, shortened: as §1
# [11] = molecular target: GlcNAc(b1-3)Gal(b1-4)GlcNAc(b1-3)[GlcNAc(b1-3)Gal(b1-4)GlcNAc(b1-3)]GalNAc
# Procedure, shortened: as §1
# [12] = molecular target: GlcNAc(b1-3)Gal(b1-4)GlcNAc(b1-6)[Gal(b1-3)]GalNAc
# Procedure, shortened: as §1
# [13] = molecular target: GlcNAc(b1-3)Gal(b1-4)GlcNAc(b1-6)[GlcNAc(b1-3)Gal(b1-3)]GalNAc
# Procedure, shortened: as §1
# [14] = molecular target: GlcNAc(b1-3)Gal(b1-4)GlcNAc(b1-6)[GlcNAc(b1-3)]Gal(b1-4)GlcNAc
# Procedure, shortened: as §1
# GlcNAc(b1-3)GalNAc = molecular target: GlcNAc(b1-3)GalNAc
# Procedure, shortened: as §1
# GlcNAc(b1-3)Man = molecular target: GlcNAc(b1-3)Man
# Procedure, shortened: as §1
# [15] = molecular target: GlcNAc(b1-3)[GlcNAc(b1-4)][GlcNAc(b1-6)]GlcNAc
# Procedure, shortened: as §1
# [16] = molecular target: GlcNAc(b1-3)[GlcNAc(b1-6)]Gal(b1-4)GlcNAc
# Procedure, shortened: as §1
# [17] = molecular target: GlcNAc(b1-3)[GlcNAc(b1-6)]GalNAc
# Procedure, shortened: as §1
# [18] = molecular target: GlcNAc(b1-4)Gal(b1-4)GlcNAc
# Procedure, shortened: as §1
# GlcNAc(b1-4)GlcNAc = molecular target: GlcNAc(b1-4)GlcNAc
# Procedure, shortened: as §1
# [19] = molecular target: GlcNAc(b1-4)GlcNAc(b1-4)GlcNAc
# Procedure, shortened: as §1
# [20] = molecular target: GlcNAc(b1-4)GlcNAc(b1-4)GlcNAc(b1-4)GlcNAc(b1-4)GlcNAc
# Procedure, shortened: as §1
binder,measurement,setting,value
"Awp3 (Candida glabrata), B4UN32 (protein) MISFVTLLAILGLLSISWADQTVRSVAGDQRVTDPVIVGDNSILDYYGGSNYDFSNNFEIGRGTLYIGKESYFSSFQSAPTDVPNSFHLLIKNTNNLQNNGQFIIENIKRHANQCSNSSIQVFPINFQNDGEFEIISGGVEGRCCLPTSVIAPQNFLNNGKFYYKVLTDTGSIYSGSCMQNVDIGASTTTTVNNNLWEFTGSINAQINGAVSGAAQINLDGSNMFVNANTFSGQVVNLINGGSFLQTSDPLSNIVVINGLGTSDTGVTSIAVKGKGKSFTYNPSSGIVKLTTVEGKTYAYQIGCGYNTKKFITNNDSGASYESADNFFVLTYSEPYSPQTCQLENSSIFSSNFISTSTSSSSSSSSASSLPSSMSSSLPSSLSSSLSSSLSSSMSSSMSSLFIIPPPYTTTRSSGSSIIDTEIVSFYSTTDSPGHTITGTTTTTLYGPHTHSSVSTPSSSSESSTTSNSSIESSSLPHTSVSSTPESSITPSSNTISSSPTSDFSSVQSSSIMESSSVVASSSVINSSSIVDSSSSSASSLPSSMSSSLSSSMSSSLPSSMSSSLSSSLSSSLSSSMSSSMSSLFIIPPPYTTTRSSGSSIIDTEIVSFYSTTDSPGHTITGTTTTTLYGPHTHSSVSTPSSSSESSTTSNSSIESSSLPHTSVSSTPESSITPSSNTISSSPTSDFSSVQSSSIMESSSVVASSSVINSSSIVDSSSSSASSLPSSMPSSLPSSMSSSLSSSMSSSLSSSLSSSLSSSMSSSMSSLFIIPPPYTTTRSSGSSIIDTEIVSFYSTTDSPGHTITGTTTTTLYGPHTHSSVSTPSSSSESSTTSNSSIESSSLPHTSVSSTPESSITPSSNTISSSPTSDFSSVQSSSIMESSSVVASSSATQSSSVINSSSIVDSSSSSASSLPSSMPSSLPSSLSSSLSSSLSSSMSSSMSSLFIIPPPYTTTRSSGSSIIDTEIVSFYSTTDSPGHTITGTTTTTLYESSIYSSSSSTIQESELSNTSRTTMTSNSSVSISSTSSRSSFSNTKSSTIVISQSASLPDSKTDIILSTSSNIGYSSRSLLSDLGTSISDSDIHHSVLHSTESYSSNESGTNPFTSIASLSNFIPESSSHTSTALGSENSVISSDILTTMSHPVATNSGDKPTTPKRSEQVSTTMTSSGPTPDTSSFDTDGMSAYSRPEFTTNSLEVNKSSTSQLGNNKQTFSNLQLESTRPHSENEVDNNTRLLQSIQQSSTYGTNNVNPLSPTGSISIPLTEDGQGDNNNWNSPATNDLCTQISFNLTATTITVTDRITITDSIHDISSEVITSYIYQTIVDQKTVTQTVDGKSLANKMSSIPKPSSRSLIQPQPPVAIELQEGAASTSRVSLVSLFISIILVLL",glycan array binding signal (z-score),[1],1.2
same,glycan array binding signal (z-score),[2],1.55
same,glycan array binding signal (z-score),[3],1.39
same,glycan array binding signal (z-score),[4],1.73
same,glycan array binding signal (z-score),[5],1.73
same,glycan array binding signal (z-score),[6],-0.245
same,glycan array binding signal (z-score),[7],0.402
same,glycan array binding signal (z-score),[8],1.61
same,glycan array binding signal (z-score),[9],0.914
same,glycan array binding signal (z-score),[10],-0.013
same,glycan array binding signal (z-score),[11],0.092
same,glycan array binding signal (z-score),[12],-0.872
same,glycan array binding signal (z-score),[13],-0.034
same,glycan array binding signal (z-score),[14],0.42
same,glycan array binding signal (z-score),GlcNAc(b1-3)GalNAc,-0.483
same,glycan array binding signal (z-score),GlcNAc(b1-3)Man,-0.126
same,glycan array binding signal (z-score),[15],-3.03
same,glycan array binding signal (z-score),[16],0.333
same,glycan array binding signal (z-score),[17],0.423
same,glycan array binding signal (z-score),[18],0.171
same,glycan array binding signal (z-score),GlcNAc(b1-4)GlcNAc,0.723
same,glycan array binding signal (z-score),[19],0.304
same,glycan array binding signal (z-score),[20],0.979
